# Measurements reported in the supplement of paper PMC8728848.
# Some of the results follow.
# B1: Clone646PsrP (Streptococcus pneumoniae) (protein)
# chain: MDHHHHHHHHASENLYFQGAPAINASLNIAKSETKVYTGEGVDSVYRVPIYYKLKVTNDGSKLTFTYTVTYVNPKTNDLGNISSMRPGYSIYNSGTSTQTMLTLGSDLGKPSGVKNYITDKNGRQVLSYNTSTMTTQGSGYTWGNGAQMNGFFAKKGYGLTSSWTVPITGTDTSFTFTPYAARTDRIGINYFNGGGKVVESSTTSQSLSQSKSLSVSAS
# Columns and labels:
# Experiment in all cases: glycan array binding signal (z-score within array); higher = stronger binding
# Details in all cases: glycan notation: IUPAC condensed, linker removed
# [1] = biological target: Fuc(a1-2)[Gal(a1-3)]Gal(b1-4)GlcNAc(b1-2)Man(a1-3)[Fuc(a1-2)[Gal(a1-3)]Gal(b1-4)GlcNAc(b1-2)Man(a1-6)]Man(b1-4)GlcNAc(b1-4)[Fuc(a1-6)]GlcNAc
# In short: (§1)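 Glycan array binding is given as a within-array Z-score, which can be read as non-binding when negative. The arrays, 3228 of them, came from the Consortium for Functional Glycomics database and were retained only where the protein sequence was available. Z-scores were averaged across arrays of the same protein sequence at different concentrations or buffers and across linkers.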
# [2] = biological target: Fuc(a1-2)[Gal(a1-3)]Gal(b1-4)GlcNAc(b1-3)GalNAc
# In short: as §1
# [3] = biological target: Fuc(a1-2)[Gal(a1-3)]Gal(b1-4)GlcNAc(b1-3)[Fuc(a1-2)[Gal(a1-3)]Gal(b1-4)GlcNAc(b1-6)]GalNAc
# In short: as §1
# [4] = biological target: Fuc(a1-2)[Gal(a1-3)]Gal(b1-4)GlcNAc(b1-6)GalNAc
# In short: as §1
# [5] = biological target: Fuc(a1-2)[Gal(a1-3)]Gal(b1-4)[Fuc(a1-3)]Glc
# In short: as §1
# [6] = biological target: Fuc(a1-2)[Gal(a1-3)]Gal(b1-4)[Fuc(a1-3)]GlcNAc
# In short: as §1
# [7] = biological target: Fuc(a1-2)[Gal(a1-3)]Gal(b1-4)[Fuc(a1-3)]GlcNAc(b1-3)GalNAc
# In short: as §1
# [8] = biological target: Fuc(a1-2)[Gal(a1-4)]Gal(b1-4)GlcNAc
# In short: as §1
# [9] = biological target: Fuc(a1-2)[GalNAc(a1-3)]Gal
# In short: as §1
# [10] = biological target: Fuc(a1-2)[GalNAc(a1-3)]Gal(b1-3)GalNAc(a1-3)[Fuc(a1-2)]Gal(b1-4)GlcNAc
# In short: as §1
# [11] = biological target: Fuc(a1-2)[GalNAc(a1-3)]Gal(b1-3)GalNAc(b1-3)Gal(a1-4)Gal(b1-4)Glc
# In short: as §1
# [12] = biological target: Fuc(a1-2)[GalNAc(a1-3)]Gal(b1-3)GlcNAc
# In short: as §1
# [13] = biological target: Fuc(a1-2)[GalNAc(a1-3)]Gal(b1-3)GlcNAc(b1-2)Man(a1-3)[Fuc(a1-2)[GalNAc(a1-3)]Gal(b1-3)GlcNAc(b1-2)Man(a1-6)]Man(b1-4)GlcNAc(b1-4)GlcNAc
# In short: as §1
# [14] = biological target: Fuc(a1-2)[GalNAc(a1-3)]Gal(b1-3)GlcNAc(b1-2)Man(a1-3)[Fuc(a1-2)[GalNAc(a1-3)]Gal(b1-3)GlcNAc(b1-2)Man(a1-6)]Man(b1-4)GlcNAc(b1-4)[Fuc(a1-6)]GlcNAc
# In short: as §1
# [15] = biological target: Fuc(a1-2)[GalNAc(a1-3)]Gal(b1-3)GlcNAc(b1-3)GalNAc
# In short: as §1
# [16] = biological target: Fuc(a1-2)[GalNAc(a1-3)]Gal(b1-3)GlcNAc(b1-6)GalNAc
# In short: as §1
# [17] = biological target: Fuc(a1-2)[GalNAc(a1-3)]Gal(b1-4)Glc
# In short: as §1
# [18] = biological target: Fuc(a1-2)[GalNAc(a1-3)]Gal(b1-4)GlcNAc
# In short: as §1
# [19] = biological target: Fuc(a1-2)[GalNAc(a1-3)]Gal(b1-4)GlcNAc(b1-2)Man
# In short: as §1
# [20] = biological target: Fuc(a1-2)[GalNAc(a1-3)]Gal(b1-4)GlcNAc(b1-2)Man(a1-3)[Fuc(a1-2)[GalNAc(a1-3)]Gal(b1-4)GlcNAc(b1-2)Man(a1-6)]Man(b1-4)GlcNAc(b1-4)GlcNAc
# In short: as §1
# [21] = biological target: Fuc(a1-2)[GalNAc(a1-3)]Gal(b1-4)GlcNAc(b1-2)Man(a1-3)[Fuc(a1-2)[GalNAc(a1-3)]Gal(b1-4)GlcNAc(b1-2)Man(a1-6)]Man(b1-4)GlcNAc(b1-4)[Fuc(a1-6)]GlcNAc
# In short: as §1
# [22] = biological target: Fuc(a1-2)[GalNAc(a1-3)]Gal(b1-4)GlcNAc(b1-3)Gal(b1-4)GlcNAc
# In short: as §1
# [23] = biological target: Fuc(a1-2)[GalNAc(a1-3)]Gal(b1-4)GlcNAc(b1-3)Gal(b1-4)GlcNAc(b1-3)Gal(b1-4)GlcNAc
# In short: as §1
# [24] = biological target: Fuc(a1-2)[GalNAc(a1-3)]Gal(b1-4)GlcNAc(b1-3)GalNAc
# In short: as §1
# [25] = biological target: Fuc(a1-2)[GalNAc(a1-3)]Gal(b1-4)GlcNAc(b1-3)[Fuc(a1-2)[GalNAc(a1-3)]Gal(b1-4)GlcNAc(b1-6)]GalNAc
# In short: as §1
# [26] = biological target: Fuc(a1-2)[GalNAc(a1-3)]Gal(b1-4)GlcNAc(b1-6)GalNAc
# In short: as §1
# [27] = biological target: Fuc(a1-2)[GalNAc(a1-3)]Gal(b1-4)[Fuc(a1-3)]GlcNAc
# In short: as §1
# [28] = biological target: Fuc(a1-2)[GalNAc(a1-3)]Gal(b1-4)[Fuc(a1-3)]GlcNAc(b1-3)GalNAc
# In short: as §1
# [29] = biological target: Fuc(a1-2)[GalNAc(a1-4)]Gal(b1-4)GlcNAc
# In short: as §1
# [30] = biological target: Fuc(a1-2)[GalNAc(b1-3)]Gal
# In short: as §1
# [31] = biological target: Fuc(a1-3)GlcNAc
# In short: as §1
# [32] = biological target: Fuc(a1-3)[Gal(b1-4)]Glc6S
# In short: as §1
# [33] = biological target: Fuc(a1-3)[Gal(b1-4)]GlcNAc
# In short: as §1
# [34] = biological target: Fuc(a1-3)[Gal(b1-4)]GlcNAc(b1-2)Man
# In short: as §1
# [35] = biological target: Fuc(a1-3)[Gal(b1-4)]GlcNAc(b1-2)Man(a1-3)[Fuc(a1-3)[Gal(b1-4)]GlcNAc(b1-2)Man(a1-6)]Man(b1-4)GlcNAc(b1-4)GlcNAc
# In short: as §1
# [36] = biological target: Fuc(a1-3)[Gal(b1-4)]GlcNAc(b1-2)Man(a1-3)[Fuc(a1-3)[Gal(b1-4)]GlcNAc(b1-2)Man(a1-6)]Man(b1-4)GlcNAc(b1-4)[Fuc(a1-6)]GlcNAc
# In short: as §1
# [37] = biological target: Fuc(a1-3)[Gal(b1-4)]GlcNAc(b1-3)Gal(b1-3)[Fuc(a1-4)]GlcNAc
# In short: as §1
# [38] = biological target: Fuc(a1-3)[Gal(b1-4)]GlcNAc(b1-3)Gal(b1-4)[Fuc(a1-3)]GlcNAc
# In short: as §1
# [39] = biological target: Fuc(a1-3)[Gal(b1-4)]GlcNAc(b1-3)Gal(b1-4)[Fuc(a1-3)]GlcNAc(b1-3)Gal(b1-4)[Fuc(a1-3)]GlcNAc
# In short: as §1
# [40] = biological target: Fuc(a1-3)[Gal(b1-4)]GlcNAc(b1-3)GalNAc
# In short: as §1
# [41] = biological target: Fuc(a1-3)[Gal(b1-4)]GlcNAc(b1-6)GalNAc
# In short: as §1
# [42] = biological target: Fuc(a1-3)[Gal(b1-4)]GlcNAc(b1-6)[Gal(b1-3)GlcNAc(b1-3)]Gal(b1-4)Glc
# In short: as §1
# [43] = biological target: Fuc(a1-3)[Gal(b1-4)]GlcNAc6S
# In short: as §1
# [44] = biological target: Fuc(a1-3)[Gal3S(b1-4)]Glc
# In short: as §1
# [45] = biological target: Fuc(a1-3)[Gal3S(b1-4)]GlcNAc
# In short: as §1
binder,measurement,setting,value
B1,glycan array binding signal (z-score),[1],-0.348
same,glycan array binding signal (z-score),[2],-0.899
same,glycan array binding signal (z-score),[3],0.786
same,glycan array binding signal (z-score),[4],-0.36
same,glycan array binding signal (z-score),[5],-0.984
same,glycan array binding signal (z-score),[6],0.904
same,glycan array binding signal (z-score),[7],-0.641
same,glycan array binding signal (z-score),[8],0.495
same,glycan array binding signal (z-score),[9],-0.526
same,glycan array binding signal (z-score),[10],-0.659
same,glycan array binding signal (z-score),[11],0.209
same,glycan array binding signal (z-score),[12],0.121
same,glycan array binding signal (z-score),[13],-0.761
same,glycan array binding signal (z-score),[14],-1
same,glycan array binding signal (z-score),[15],-0.123
same,glycan array binding signal (z-score),[16],-0.849
same,glycan array binding signal (z-score),[17],-0.855
same,glycan array binding signal (z-score),[18],-0.709
same,glycan array binding signal (z-score),[19],-0.363
same,glycan array binding signal (z-score),[20],-0.839
same,glycan array binding signal (z-score),[21],0.318
same,glycan array binding signal (z-score),[22],-0.638
same,glycan array binding signal (z-score),[23],-0.2
same,glycan array binding signal (z-score),[24],0.378
same,glycan array binding signal (z-score),[25],0.544
same,glycan array binding signal (z-score),[26],-0.917
same,glycan array binding signal (z-score),[27],0.864
same,glycan array binding signal (z-score),[28],0.478
same,glycan array binding signal (z-score),[29],-0.73
same,glycan array binding signal (z-score),[30],-0.798
same,glycan array binding signal (z-score),[31],0.18
same,glycan array binding signal (z-score),[32],2.27
same,glycan array binding signal (z-score),[33],0.303
same,glycan array binding signal (z-score),[34],-0.231
same,glycan array binding signal (z-score),[35],-0.096
same,glycan array binding signal (z-score),[36],-0.573
same,glycan array binding signal (z-score),[37],-0.683
same,glycan array binding signal (z-score),[38],-0.133
same,glycan array binding signal (z-score),[39],-0.6
same,glycan array binding signal (z-score),[40],0.014
same,glycan array binding signal (z-score),[41],0.039
same,glycan array binding signal (z-score),[42],-0.007
same,glycan array binding signal (z-score),[43],0.684
same,glycan array binding signal (z-score),[44],-0.178
same,glycan array binding signal (z-score),[45],1.3

# An excerpt of these results, tab-delimited:
binder	measurement	setting	value
B1	glycan array binding signal (z-score)	[35]	-0.096
same	glycan array binding signal (z-score)	[36]	-0.573
same	glycan array binding signal (z-score)	[37]	-0.683
